# Results from PMC9203742 (Nature Communications, 2022).
# “And” between values parts separate entries of the source, which are not always exact repeats. Identical values can stand only once. Further values from the same series stand in other lists.
# What was measured:
# Assay type in all cases: cell-based, mouse
# [1] = tested on: Purkinje cells in cerebellar slices from mGlu1^CBC/+ mice; assay: chemLTD recording (PF-EPSC) in Purkinje cells of acute cerebellar slices, mGlu1^CBC/+ mice; conditions: mGlu1CBC/+, individual cells
# Protocol: Sagittal cerebellar slices were cut with a microslicer (Linear slicer Pro7; DOSAKA EM) in cutting solution buffer and then incubated in ACSF gassed with 5% CO2 and 95% O2 at room temperature.
# Whole-cell patch-clamp recordings were made from visually identified Purkinje cells using a 60× water-immersion objective attached to an upright microscope (BX51WI, Olympus) at room temperature, as described previously. […] Picrotoxin (100 µM; Sigma) was always added to the saline to block inhibitory synaptic transmission.
# To evoke EPSCs derived from CF (CF-EPSCs) and PF (PF-EPSCs) inputs onto Purkinje cells, square pulses were applied through a stimulating electrode placed on the granular layer and the molecular layer (50 µm away from the pial surface), respectively. The selective stimulation of CFs and PFs was confirmed by the paired-pulse depression (PPD) and paired-pulse facilitation (PPF) of EPSC amplitudes at a 50-ms interstimulus interval (ISI), respectively.
# For the LTD sessions, PF-EPSCs were recorded successively at a frequency of 0.1 Hz from Purkinje cells clamped at –80 mV. After a stable PF-EPSC amplitude had been observed for at least 5 min, a conjunctive stimulation that consisted of 30 single PF stimuli together with a 200 ms depolarizing pulse from a holding potential of –60 to +20 mV was applied for LTD induction.
# To chemically induce LTD (chemLTD), 50 µM (S)-3,5-dihydroxyphenylglycine (DHPG) or 1 µM Pd(sulfo-bpy) was applied for 10 min in a current-clamp mode. We often observed a transient decrease in PF-EPSC amplitude after the application of each drug probably because Purkinje cells under current-clamp conditions excite spontaneously to suppress presynaptic function through the retrograde signaling. Access resistances were monitored every 10 s by measuring the peak currents in response to 2 mV, 50-ms hyperpolarizing steps throughout the experiments; the measurements were discarded if the resistance changed by >20% of its original value. The normalized EPSC amplitude on the ordinate represents the EPSC amplitude for the average of six traces for 1 min divided by that of the average of six traces for 1 min immediately before the conjunctive stimulation or the drug application.
# [2] = tested on: GFP-positive Purkinje cells infected with AAV-L7-mGlu1^CBC; assay: chemLTD recording in GFP-positive Purkinje cells, slices infected with AAV-L7-mGlu1^CBC; conditions: AAV-L7-mGlu1CBC
# [3] = tested on: GFP-positive Purkinje cells infected with AAV-L7-mGlu1^WT; assay: chemLTD recording in GFP-positive Purkinje cells, slices infected with AAV-L7-mGlu1^WT; conditions: AAV-L7-mGlu1WT
structure (smiles),measurement,setting,value
Cc1ccnc(-c2cc(COCCCS(=O)(=O)[O-])ccn2)c1.[Cl][Pd][Cl].[Na+] [Pd(sulfo-bpy)],PF-EPSC amplitude relative to time 0,[1]; time 29 min,0.5423 and 0.5779 and 0.834 and 0.6772 and 0.5703 and 0.7242 and 0.6413 and 0.9077
same,PF-EPSC amplitude relative to time 0,[1]; time 30 min,0.5346 and 0.5702 and 0.8473 and 0.693 and 0.5412 and 0.687 and 0.6391 and 0.8461
same,PF-EPSC amplitude relative to time 0,[1]; time 31 min,0.583 and 0.5743 and 0.8498 and 0.6369 and 0.5735 and 0.726 and 0.678 and 0.9086
same,PF-EPSC amplitude relative to time 0,[1]; time 32 min,0.5526 and 0.5451 and 0.8895 and 0.6477 and 0.5619 and 0.5767 and 0.6547 and 0.9603
same,PF-EPSC amplitude relative to time 0,[1]; time 33 min,0.5438 and 0.4906 and 0.8315 and 0.6387 and 0.6003 and 0.6337 and 0.6759 and 0.9643
same,PF-EPSC amplitude relative to time 0,[1]; time 34 min,0.5442 and 0.5724 and 0.8449 and 0.6303 and 0.652 and 0.5905 and 0.6831 and 0.9693
same,PF-EPSC amplitude relative to time 0,[1]; time 35 min,0.5766 and 0.6213 and 0.783 and 0.6375 and 0.6196 and 0.5612 and 0.6583 and 0.993
same,"PF-EPSC amplitude normalized to time 0, individual Purkinje cells",[2]; Time 25 min,0.862 and 0.61 and 0.944 and 0.587 and 0.805
same,"PF-EPSC amplitude normalized to time 0, individual Purkinje cells",[2]; Time 26 min,0.4944 and 0.6562 and 0.7821 and 0.6522 and 0.9738 and 0.5721 and 0.7975
same,"PF-EPSC amplitude normalized to time 0, individual Purkinje cells",[2]; Time 27 min,0.5827 and 0.7214 and 0.6652 and 0.6239 and 0.941 and 0.5054 and 0.8456
same,"PF-EPSC amplitude normalized to time 0, individual Purkinje cells",[2]; Time 28 min,0.6398 and 0.6872 and 0.5906 and 0.5735 and 0.9266 and 0.5925 and 0.8256
same,"PF-EPSC amplitude normalized to time 0, individual Purkinje cells",[2]; Time 29 min,0.6647 and 0.6813 and 0.7075 and 0.5997 and 0.9301 and 0.6112 and 0.7856
same,"PF-EPSC amplitude normalized to time 0, individual Purkinje cells",[2]; Time 30 min,0.6699 and 0.6415 and 0.7376 and 0.6393 and 0.9138 and 0.5616 and 0.7359
same,"PF-EPSC amplitude normalized to time 0, individual Purkinje cells",[2]; Time 31 min,0.6297 and 0.5634 and 0.7116 and 0.6582 and 0.9335 and 0.571 and 0.7292
same,"PF-EPSC amplitude normalized to time 0, individual Purkinje cells",[2]; Time 32 min,0.6048 and 0.6159 and 0.7683 and 0.5824 and 0.8965 and 0.5923 and 0.7474
same,"PF-EPSC amplitude normalized to time 0, individual Purkinje cells",[2]; Time 33 min,0.5723 and 0.6306 and 0.67 and 0.6221 and 0.9751 and 0.6076 and 0.6739
same,"PF-EPSC amplitude normalized to time 0, individual Purkinje cells",[2]; Time 34 min,0.6195 and 0.7395 and 0.6058 and 0.5053 and 0.9588 and 0.5475 and 0.4466
same,"PF-EPSC amplitude normalized to time 0, individual Purkinje cells",[2]; Time 35 min,0.5102 and 0.6678 and 0.7994 and 0.5274 and 0.9737 and 0.5592 and 0.341
same,"PF-EPSC amplitude normalized to time 0, individual Purkinje cells",[2]; Time 36 min,0.6351 and 0.7241 and 0.8653 and 0.6146 and 0.9982 and 0.5624
same,"PF-EPSC amplitude normalized to time 0, individual Purkinje cells",[2]; Time 37 min,0.6435 and 0.8951 and 1.128 and 0.8089 and 0.9455 and 0.6042
same,"PF-EPSC amplitude normalized to time 0, individual Purkinje cells",[2]; Time 38 min,0.6069 and 1.7 and 0.8591 and 1.3337 and 0.9315
same,"PF-EPSC amplitude normalized to time 0, individual Purkinje cells",[3]; Time 25 min,0.8818 and 0.9425 and 1.0844 and 0.5784 and 0.9859
same,"PF-EPSC amplitude normalized to time 0, individual Purkinje cells",[3]; Time 26 min,1.004 and 0.9231 and 0.8221 and 0.9404 and 1.037 and 0.585 and 0.9556
same,"PF-EPSC amplitude normalized to time 0, individual Purkinje cells",[3]; Time 27 min,1.073 and 0.923 and 0.8487 and 0.9084 and 1.097 and 0.5895 and 0.9443
same,"PF-EPSC amplitude normalized to time 0, individual Purkinje cells",[3]; Time 28 min,1.11 and 0.9481 and 0.8852 and 0.9612 and 1.149 and 0.5973 and 0.9705
same,"PF-EPSC amplitude normalized to time 0, individual Purkinje cells",[3]; Time 29 min,1.069 and 0.7935 and 0.9277 and 0.9552 and 1.169 and 0.557 and 0.9446
same,"PF-EPSC amplitude normalized to time 0, individual Purkinje cells",[3]; Time 30 min,1.046 and 0.644 and 0.8651 and 0.9247 and 1.165 and 0.5678 and 0.9522
same,"PF-EPSC amplitude normalized to time 0, individual Purkinje cells",[3]; Time 31 min,1.046 and 0.6373 and 0.8291 and 0.9162 and 1.128 and 0.5443 and 0.8801
same,"PF-EPSC amplitude normalized to time 0, individual Purkinje cells",[3]; Time 32 min,1.178 and 0.7545 and 0.8295 and 0.911 and 1.061 and 0.5272 and 0.8976
same,"PF-EPSC amplitude normalized to time 0, individual Purkinje cells",[3]; Time 33 min,1.0972 and 0.8511 and 0.8322 and 0.8783 and 0.9952 and 0.5531 and 0.8493
same,"PF-EPSC amplitude normalized to time 0, individual Purkinje cells",[3]; Time 34 min,1.136 and 0.8651 and 0.9034 and 0.8734 and 0.9683 and 0.5732 and 0.9496
same,"PF-EPSC amplitude normalized to time 0, individual Purkinje cells",[3]; Time 35 min,1.17 and 0.8178 and 0.8694 and 0.8838 and 1.083 and 0.5142 and 0.9812
same,"PF-EPSC amplitude normalized to time 0, individual Purkinje cells",[3]; Time 36 min,1.192 and 0.9334 and 0.8592 and 0.8469 and 1.019 and 0.5108 and 0.9303
same,"PF-EPSC amplitude normalized to time 0, individual Purkinje cells",[3]; Time 37 min,1.221 and 1.077 and 0.4748 and 0.9426
same,"PF-EPSC amplitude normalized to time 0, individual Purkinje cells",[3]; Time 38 min,1.176 and 0.6699 and 1.074 and 0.4085 and 0.9188
